We go through 57 compounds from PubChem BioAssay AID1487 (National Center for Advancing Translational Sciences (NCATS), 2009).

The other results are listed elsewhere or left out. The main result of the screen is listed elsewhere. These columns were measured beside it and carry no call. The list favours compounds with an active or inconclusive main result. Words in brackets tell the shape of the fitted curve; partial curves, single points and poor fits give uncertain potencies.

A short description of this experiment: qHTS Assay for Modulators of Lamin A Splicing. To be noted: HeLa LMNA splicing GFP/RFP minigene ratio, 48 h. The gist of the method:
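Read-out is the ratio of GFP to DsRed2 object intensity, acquired by 488 nm laser-scanning cytometry on HeLa lamin A-EGFP minigene reporter cells. Compound incubation 48 hrs at 37 °C in Opti-MEM with 2% FBS; DMSO 0.5% final.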
(In general: qHTS replaces the single test concentration by a dilution series.)

The mark [1] stands for this setting: measured here: GFP splicing reporter channel.
Where [2] appears, read: measured here: RFP viability control channel.

For `CCN(c1ccccc1)S(=O)(=O)c1ccc(C(C(=O)OC)C(=O)OC)c([N+](=O)[O-])c1`, the AC50 – broadly, the concentration at which the activity in the assay is half-maximal – under setting [1] is 6.31 µM [rising, single point].

`COc1ccccc1-n1cnc2cc(NCc3cccs3)ccc21`: the AC50 under setting [1] is 12.6 µM [falling, single point].

For the compound `O=C(Cc1ccccc1)NCCc1csc2nc(-c3ccc(Cl)cc3)nn12`, under setting [1], the AC50 is 0.794 µM [rising, partial curve, poor fit].

Turning to `CC(=O)N/C(=C/c1ccc(OS(=O)(=O)c2ccc(C)cc2)cc1)C(=O)NCCO`, the half-maximal activity concentration (AC50) under setting [2] is 3.55 µM [falling, full curve, poor fit].

With `CCOC(=O)c1c(NC(=O)CSc2nnc(C)s2)sc2c1CCC(CC)C2` (stereo not given), the AC50 under setting [2] was 35.5 µM [rising, single point].

In the case of `Cc1cccc(Oc2coc3cc(OC(=O)c4cncc(Br)c4)ccc3c2=O)c1`, the AC50 under setting [1] is 0.0501 µM [rising, full curve, poor fit].

Consider `COC(=O)c1ccc(CSc2nc3c([nH]c4ccccc43)c(=O)n2-c2ccc(OC)cc2)o1`, for which the AC50 is 3.16 µM [falling, full curve] under setting [1] and 8.91 µM [falling, partial curve] under setting [2].

Regarding `Cc1ccc(S(=O)(=O)NC2c3cccc4cccc(c34)C2Sc2nncn2C)cc1` (stereo not given), under setting [2], the concentration at half-maximal activity (AC50) is 10 µM [rising, partial curve, poor fit].

In the case of `O=C(c1ccc(S(=O)(=O)N2CCCCCC2)cc1)N1CCC(CN2C(=O)c3cccc4cccc(c34)C2=O)CC1`, the AC50 under setting [2] is 7.08 µM [falling, partial curve].

For `O=C(c1cc(-c2ccncc2)nc2ccc(Cl)cc12)N1CCN(Cc2ccc3c(c2)OCO3)CC1`, the AC50 under setting [1] is 12.6 µM [falling, partial curve, poor fit].

Take `CN(C)c1ccnc(-n2cccc2/C=N/OCc2ccc(F)cc2Cl)c1C#N`: the AC50 under setting [2] is 15.8 µM [rising, single point].

Take `CN1CCN(S(=O)(=O)c2cccc(C(=O)N3CCc4ccccc43)c2)CC1`: the AC50 under setting [2] was 14.1 µM [falling, partial curve].

In the case of `CCOC(=O)c1ccc(N=c2sc(C(=O)OC)cc(=O)n2CCCN2CCOCC2)cc1`, under setting [1], the half-maximal activity concentration (AC50) was 17.8 µM [falling, single point].

With `Cn1c(CC2Sc3ccccc3NC2=O)nnc1SCC(=O)c1ccc(Cl)cc1` (stereo not given), the AC50 under setting [1] was 1.26 µM [falling, partial curve].

Regarding `CCCCn1c(=S)[nH]c2ccc(N3CCOCC3)cc2c1=O`, the AC50 under setting [2] was 3.98 µM [falling, full curve].

In the case of `CC(C)c1nn2c(=O)cc(COC(=O)c3ccc(NC(=O)C4CCCCC4)cc3)nc2s1`, under setting [2], the AC50 is 5.62 µM [rising, full curve, poor fit].

In the case of `Cc1cccc(NC(=S)/N=C(\N)Nc2nc(C)c3ccccc3n2)c1`, the half-maximal activity concentration (AC50) by setting is: under setting [1], 11.2 µM [rising, single point]; under setting [2], 15.8 µM [rising, single point].

`Cc1c(C)c2ccc(OS(C)(=O)=O)cc2oc1=O`: under setting [1], the AC50 was 0.0224 µM [falling, full curve, poor fit].

`COC(=O)c1cc(=O)n(CCc2ccc(OC)cc2)c(=Nc2ccc(F)c(Cl)c2)s1`: the AC50 under setting [1] is 22.4 µM [falling, single point] and the AC50 under setting [2] was 35.5 µM [falling, single point].

As for `COCCN1CCN(Cc2nc(Cc3ccc(OC)c(OC)c3)no2)CC1`, the AC50 by setting is: under setting [1], 0.0224 µM [falling, full curve, poor fit]; under setting [2], 0.0282 µM [falling, full curve].

For `COc1cc2cc(C(=O)Nc3ccccc3)c(N)nc2cc1OC`, under setting [2], the AC50 is 0.0158 µM [rising, full curve, poor fit].

As to `CC1CC(C)CN(S(=O)(=O)c2ccc(C(C)(C)C)cc2)C1` (stereo not given), the AC50 under setting [1] is 1.78 µM [falling, partial curve, poor fit].

Regarding `CCCOc1ccc(S(=O)(=O)NNC(=O)c2cc3ccccc3o2)cc1`, under setting [2], the half-maximal activity concentration (AC50) is 15.8 µM [rising, single point].

As for `O=C(NCc1ccco1)c1cc2ccccc2o1`, under setting [1], the AC50 is 31.6 µM [rising, single point].

In the case of `CCOC(=O)/C(C#N)=C/c1cn(CCC(=O)O)nc1-c1ccc(OC)cc1`, the AC50 under setting [2] was 2.82 µM [rising, partial curve, poor fit].

With `COc1ccc(S(=O)(=O)N2CCN(c3ccc4nnc(-c5ccc(F)cc5)n4n3)CC2)cc1`, the AC50 under setting [1] was 35.5 µM [rising, single point].

Regarding `CCOc1ccc(C(=O)NC2CC(=O)N(c3ccc(C)cc3)C2)cc1OCC` (stereo not given), the AC50 under setting [1] is 14.1 µM [falling, single point].

In the case of `COc1ccc(/C=N/NC(=O)c2nc(-c3ccccc3)cc(-c3ccccc3)n2)cc1O`, under setting [2], the AC50 was 31.6 µM [rising, single point].

Take `C[C@@H]1CN(C(=O)c2nc3ccc(Cl)cn3c2CN[C@H]2CCCCNC2=O)C[C@H](C)O1`: the AC50 under setting [2] is 0.501 µM [falling, full curve, poor fit].

With `COc1ccc(/C=N/Nc2nc(N)cc(Cl)n2)cc1OC`, the AC50 under setting [1] was 12.6 µM [rising, partial curve, poor fit].

As to `Cc1ccc(-n2c(C)cc(C)c(C#N)c2=O)cc1`, the AC50 under setting [2] is 0.794 µM [falling, partial curve].

Regarding `COc1ccccc1OCC(=O)NCCSCc1ccccc1Cl`, the half-maximal activity concentration (AC50) reads like this: under setting [1], 11.2 µM [rising, partial curve]; under setting [2], 15.8 µM [rising, single point].

As for `Cc1ccc(NC(=O)CCOc2ccccc2)cc1S(=O)(=O)Nc1ccccc1Cl`, the AC50 was 12.6 µM [rising, single point] under setting [1] and 28.2 µM [rising, single point] under setting [2].

As to `Cc1ccccc1CNC(=O)CN1C(=O)C2CCCCN2c2ccc(C(=O)N3CCCC3)cc21` (stereo not given), under setting [1], the AC50 was 5.01 µM [falling, partial curve, poor fit].

In the case of `CCC(C)(C)n1nnnc1C(c1cccs1)N1CCc2ccccc21` (stereo not given), the AC50 under setting [2] is 11.2 µM [rising, partial curve, poor fit].

As to `O=C(c1ccc(-c2ccccc2)cc1)C1CCCN(C(=O)c2ccncc2)C1` (stereo not given), under setting [1], the concentration at half-maximal activity (AC50) was 35.5 µM [rising, single point].

Consider `CC1CC(C)CN(CCOc2ccccc2-c2ccccc2)C1` (stereo not given), for which the AC50 under setting [2] was 12.6 µM [rising, single point].

`O=C(Nc1ccc2c(c1)N(C1CCCC1)C(=O)c1ccccc1S2)c1ccccc1F`: the concentration at half-maximal activity (AC50) under setting [1] was 8.91 µM [falling, partial curve, poor fit].

For `COC(=O)c1ccccc1NC(=O)c1cc2cc(C)ccc2n1C`, the AC50 is, setting by setting: under setting [1], 4.47 µM [falling, partial curve]; under setting [2], 5.62 µM [falling, single point].

For the compound `CCS(=O)(=O)N1Cc2ccccc2CC1C(=O)Nc1nccs1` (stereo not given), under setting [2], the AC50 was 2.24 µM [rising, full curve, poor fit].

As to `Cc1ccc(S(=O)(=O)N2CCC(C(=O)N3Cc4ccccc4C3)CC2)cc1`, the half-maximal activity concentration (AC50) was 20 µM [rising, single point] under setting [1] and 22.4 µM [rising, single point] under setting [2].

Regarding `c1ccc(CN2CCN(c3ncnc4c3cnn4-c3ccccc3)CC2)cc1`, the AC50 under setting [2] is 0.178 µM [falling, full curve, poor fit].

In the case of `CCc1cc(C(=O)Cc2ccc(F)cc2)c(O)cc1O`, under setting [2], the AC50 was 12.6 µM [rising, partial curve].

`COC(=O)c1ccccc1NC(=O)c1cnn2cccnc12`: the AC50 under setting [1] is 12.6 µM [falling, partial curve] and the AC50 under setting [2] was 20 µM [falling, partial curve, poor fit].

For `Cc1cc(NC(=O)c2noc3c2CCCC3)nn1Cc1ccc(Cl)cc1`, the AC50 under setting [2] is 35.5 µM [rising, single point].

As to `O=C(NCc1ccc(F)cc1)c1ccc(CS(=O)(=O)Cc2ccc(F)cc2)o1`, the AC50 under setting [2] is 12.6 µM [rising, partial curve].

Turning to `COc1ccc2c(c1)CC[C@@H]1[C@@H]2CC[C@]2(C)C(=O)CC[C@@H]12`, the AC50 is, setting by setting: under setting [1], 12.6 µM [rising, single point]; under setting [2], 35.5 µM [rising, single point].

As for `CCSc1ccccc1C(=O)Nc1ccc(-c2nc3ccccc3s2)c(O)c1`, the AC50 is, setting by setting: under setting [1], 12.6 µM [falling, single point]; under setting [2], 10 µM [falling, single point].

As to `CCOCCCNS(=O)(=O)c1ccc(NC(=O)c2ccc(OC)c([N+](=O)[O-])c2)cc1`, the AC50 under setting [2] was 0.794 µM [falling, full curve, poor fit].

As to `CSCCC(NC(=O)c1cncc(Br)c1)C(=O)O` (stereo not given), the AC50 under setting [1] is 11.2 µM [rising, partial curve, poor fit].

Take `O=c1[nH]c2cc3c(cc2cc1CN(Cc1cccnc1)C(=S)NCc1ccco1)OCO3`: under setting [2], the concentration at half-maximal activity (AC50) is 0.0141 µM [falling, full curve, poor fit].

With `Cc1ccccc1Nc1nnc(SCC(=O)c2cc3ccccc3o2)s1`, the AC50 under setting [2] was 35.5 µM [rising, single point].

For the compound `Cc1ccc(NC(=O)CSc2ccc(-c3ccccn3)nn2)cc1`, under setting [1], the AC50 was 10 µM [falling, partial curve].

Regarding `Fc1cccc2sc(Nc3nc4cc5c(cc4s3)OCCO5)nc12`, the AC50 under setting [1] was 11.2 µM [rising, partial curve] and the AC50 under setting [2] is 15.8 µM [rising, partial curve].

Regarding `CC(=O)/C(=N\Nc1ccccc1)Sc1cccc2cccnc12`, the AC50 under setting [2] is 35.5 µM [rising, single point].

Consider `Cc1cn([C@H]2C[C@@H](N=[N+]=[N-])[C@@H](CO)O2)c(=O)[nH]c1=O`, for which the AC50 was 5.62 µM [falling, partial curve, poor fit] under setting [1] and 5.62 µM [falling, single point] under setting [2].

Regarding `CCc1ccccc1NC(=S)N(Cc1cccc(C)c1)c1cccnc1`, under setting [2], the AC50 was 0.00316 µM [falling, full curve, poor fit].
